Values from PubChem BioAssay AID1053208 (Peter MacCallum Cancer Centre, 2014)
Test: 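Genes whose silencing cuts survival of bone tumour cells only with doxorubicin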 (primary screen). Cell system: mouse osteosarcoma cells, early-passage culture from an engineered mouse model of fibroblastic bone tumour. Reagents: siRNA pool against mouse genes, 40 nM. Timing: about 120 h (48 h before drug, then 72 h with drug). Conditions: doxorubicin 100 nM for 72 h, roughly 30-40% inhibitory dose. Detection: 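Luminescent ATP signal taken as viability with or without 100 nM doxorubicin for 72 h; mean of two wells set against non-targeting siRNA and turned into robust z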. Scale: viability z-score with doxorubicin: higher = more viable cells under doxorubicin; viability z-score without drug: higher = more viable cells with knock-down alone. Rule for the call: 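a pool counts as active when its viability z-score with doxorubicin is -2 or below and its z-score without drug lies between -2 and 2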.
In all, the deposit lists about 17,000 reagents; this is an unselected part. 788 of all reagents (4.7%) count as active. 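Calls rest on z-score classes alone; an extra cut-off of viability at most 70% of control was not applied to them.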 Not all columns of the deposit are shown.

target gene	PubChem SID	combined z-score class	viability z-score with doxorubicin	viability z-score without drug	activity call
Pkp4	SID152308842	no change with or without drug	0.67	0.84	inactive
Pcdh9	SID152293272	no change with or without drug	0.67	1.52	inactive
Hoxb9	SID152268401	no change with or without drug	-0.45	-0.17	inactive
Asgr1	SID152327675	no change with or without drug	-0.56	-1.52	inactive
Mtmr1	SID152307937	no change with or without drug	0.22	-1.18	inactive
Psmb11	SID152290213	no change with or without drug	0.11	0.34	inactive
Or5bh3	SID152338940	no change with or without drug	-0.34	0.17	inactive
Msx3	SID152322828	no change with or without drug	0.45	0.34	inactive
Disc1	SID152319578	no change with or without drug	-1.8	-0.84	inactive
Krt15	SID152322772	no change with or without drug	-0.56	-1.18	inactive
Eif4ebp2	SID152263414	no change with or without drug	-1.35	1.52	inactive
Eif5	SID152312450	no change with or without drug	0.34	0.67	inactive
Prss58	SID152297724	no change with or without drug	0.9	0.34	inactive
Gsdmc2	SID152311345	high cell count without drug only	0.45	2.19	inactive
Serpinb9d	SID152268287	no change with or without drug	-0.34	-0.17	inactive
Adat1	SID152302742	no change with or without drug	0.45	0.84	inactive
Smr3a	SID152295097	no change with or without drug	0.11	0.51	inactive
Smr3a	SID152300898	no change with or without drug	-0.45	0.84	inactive
Rpl6	SID152292185	low cell count with and without drug	-6.52	-6.91	inactive
Ube2e1	SID152325783	no change with or without drug	-1.12	0	inactive
Or1a1b	SID152262988	no change with or without drug	-1.01	-0.51	inactive
Tmem14c	SID152293725	high cell count with doxorubicin only	2.14	0.17	inactive
Vmn1r177	SID152303576	no change with or without drug	-0.9	-0.84	inactive
Oc90	SID152265373	no change with or without drug	-0.45	-1.18	inactive
Zfp113	SID152326435	low cell count without drug only	-0.22	-3.04	inactive
Nox3	SID152263695	no change with or without drug	-1.35	0	inactive

2 of these entries, set out differently.
{"target gene":"Eif4ebp2","PubChem SID":"SID152263414","combined z-score class":"no change with or without drug","viability z-score with doxorubicin":-1.35,"viability z-score without drug":1.52,"activity call":"inactive"}
{"target gene":"Eif5","PubChem SID":"SID152312450","combined z-score class":"no change with or without drug","viability z-score with doxorubicin":0.34,"viability z-score without drug":0.67,"activity call":"inactive"}

The results go on.
target gene	PubChem SID	combined z-score class	viability z-score with doxorubicin	viability z-score without drug	activity call
Mog	SID152311766	low cell count with doxorubicin only	-2.47	-1.18	active
Or4a68	SID152267743	no change with or without drug	1.12	0.34	inactive
Crbn	SID152338080	no change with or without drug	1.57	1.52	inactive
Smim48	SID152261013	no change with or without drug	-1.91	-0.17	inactive
Rbp7	SID152336442	no change with or without drug	-0.45	-0.84	inactive
Mpzl3	SID152281029	no change with or without drug	-0.45	0.84	inactive
Or2m13	SID152341133	no change with or without drug	-1.57	-1.52	inactive
Anks4b	SID152298876	low cell count with doxorubicin only	-2.36	-0.17	active
Set	SID152282292	high cell count without drug only	1.91	2.7	inactive
Galr1	SID152272961	no change with or without drug	0.9	0.17	inactive
Or8c16	SID152297030	no change with or without drug	0.22	0	inactive
Or4c125	SID152329317	no change with or without drug	0.9	0.51	inactive
Best1	SID152328045	no change with or without drug	1.12	1.35	inactive
Chmp4c	SID152300161	no change with or without drug	0.34	1.18	inactive
Tor1aip1	SID152332928	no change with or without drug	-1.91	-1.85	inactive
Abcc1	SID152332074	no change with or without drug	0.67	0.17	inactive
Cetn3	SID152304841	no change with or without drug	-0.56	-1.35	inactive
Cdh10	SID152292036	no change with or without drug	0.9	-0.17	inactive
Teddm1a	SID152276044	no change with or without drug	-1.12	0	inactive
Or5p64	SID152321036	no change with or without drug	-1.57	0	inactive
Serpinb6b	SID152317017	no change with or without drug	-0.56	0.17	inactive
Rtel1	SID152309706	no change with or without drug	-0.45	0.51	inactive
Rai14	SID152272034	no change with or without drug	0	-1.69	inactive
Trim24	SID152294227	no change with or without drug	-0.67	-0.51	inactive
